Experiment in all cases: affinity purification with mass spectrometry; anti-HA monoclonal antibody covalently coupled to magnetic beads (Pierce Direct Magnetic IP/Co-IP Kit); 1 mg total lysate of human chondrocytes transfected with HA-tagged wild-type WISP3, p.Tyr109* or p.Cys114Trp; binding at room temperature; eluates analysed by label-free nanoLC-MS/MS (DIA); two biological replicates per condition

Protein sequences, listed by entry. Tags and fused reporters are not part of them.
UniProt P04792: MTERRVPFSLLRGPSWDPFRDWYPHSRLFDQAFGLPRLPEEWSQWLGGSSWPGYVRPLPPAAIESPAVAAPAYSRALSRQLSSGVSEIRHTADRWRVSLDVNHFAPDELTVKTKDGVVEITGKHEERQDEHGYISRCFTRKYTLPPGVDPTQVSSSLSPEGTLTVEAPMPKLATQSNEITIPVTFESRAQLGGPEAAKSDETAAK
UniProt Q07065: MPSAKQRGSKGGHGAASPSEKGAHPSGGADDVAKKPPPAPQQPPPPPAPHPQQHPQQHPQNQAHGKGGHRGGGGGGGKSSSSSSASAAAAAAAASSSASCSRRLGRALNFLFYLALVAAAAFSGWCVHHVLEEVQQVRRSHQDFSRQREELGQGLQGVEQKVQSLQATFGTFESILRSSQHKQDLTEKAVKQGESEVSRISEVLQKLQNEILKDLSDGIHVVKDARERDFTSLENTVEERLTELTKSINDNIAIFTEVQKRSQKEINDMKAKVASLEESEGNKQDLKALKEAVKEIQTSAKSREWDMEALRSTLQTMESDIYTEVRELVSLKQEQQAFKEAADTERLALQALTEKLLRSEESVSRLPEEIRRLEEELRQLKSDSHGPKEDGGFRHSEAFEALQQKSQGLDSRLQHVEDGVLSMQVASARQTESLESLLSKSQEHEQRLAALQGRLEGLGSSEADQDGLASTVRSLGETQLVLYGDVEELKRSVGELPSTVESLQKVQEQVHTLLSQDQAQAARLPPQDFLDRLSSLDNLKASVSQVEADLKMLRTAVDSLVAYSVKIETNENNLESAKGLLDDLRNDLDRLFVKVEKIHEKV
UniProt Q13885: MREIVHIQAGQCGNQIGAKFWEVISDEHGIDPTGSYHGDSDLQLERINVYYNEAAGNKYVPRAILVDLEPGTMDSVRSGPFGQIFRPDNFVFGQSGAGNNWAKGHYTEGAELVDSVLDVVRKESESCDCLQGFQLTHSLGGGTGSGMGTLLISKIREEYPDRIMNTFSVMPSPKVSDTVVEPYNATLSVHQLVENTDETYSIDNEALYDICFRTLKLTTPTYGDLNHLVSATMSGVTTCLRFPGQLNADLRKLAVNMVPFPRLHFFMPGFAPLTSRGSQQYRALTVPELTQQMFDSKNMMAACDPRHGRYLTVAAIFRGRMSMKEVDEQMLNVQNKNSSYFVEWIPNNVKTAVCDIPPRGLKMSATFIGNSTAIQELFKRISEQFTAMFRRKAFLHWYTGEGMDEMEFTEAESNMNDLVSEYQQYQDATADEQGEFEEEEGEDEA
UniProt Q9UHB6: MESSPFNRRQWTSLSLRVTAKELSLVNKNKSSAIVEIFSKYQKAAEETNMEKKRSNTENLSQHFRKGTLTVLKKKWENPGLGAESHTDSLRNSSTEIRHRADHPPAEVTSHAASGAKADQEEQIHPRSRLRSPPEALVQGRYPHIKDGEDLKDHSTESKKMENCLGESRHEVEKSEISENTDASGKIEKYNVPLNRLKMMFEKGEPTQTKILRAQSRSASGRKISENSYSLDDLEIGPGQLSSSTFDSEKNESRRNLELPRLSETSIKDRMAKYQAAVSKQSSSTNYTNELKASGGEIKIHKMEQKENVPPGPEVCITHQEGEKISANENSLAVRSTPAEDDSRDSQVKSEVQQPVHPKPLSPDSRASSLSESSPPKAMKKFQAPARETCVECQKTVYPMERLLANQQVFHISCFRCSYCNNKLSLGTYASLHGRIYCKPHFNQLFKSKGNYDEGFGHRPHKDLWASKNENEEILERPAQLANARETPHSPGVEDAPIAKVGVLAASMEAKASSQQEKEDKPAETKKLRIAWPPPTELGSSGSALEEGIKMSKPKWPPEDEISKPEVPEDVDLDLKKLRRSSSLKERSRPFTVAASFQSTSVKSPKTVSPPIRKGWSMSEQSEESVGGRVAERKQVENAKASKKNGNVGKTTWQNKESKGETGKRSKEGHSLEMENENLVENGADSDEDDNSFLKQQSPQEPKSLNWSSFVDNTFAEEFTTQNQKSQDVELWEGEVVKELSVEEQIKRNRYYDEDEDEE
UniProt P17844: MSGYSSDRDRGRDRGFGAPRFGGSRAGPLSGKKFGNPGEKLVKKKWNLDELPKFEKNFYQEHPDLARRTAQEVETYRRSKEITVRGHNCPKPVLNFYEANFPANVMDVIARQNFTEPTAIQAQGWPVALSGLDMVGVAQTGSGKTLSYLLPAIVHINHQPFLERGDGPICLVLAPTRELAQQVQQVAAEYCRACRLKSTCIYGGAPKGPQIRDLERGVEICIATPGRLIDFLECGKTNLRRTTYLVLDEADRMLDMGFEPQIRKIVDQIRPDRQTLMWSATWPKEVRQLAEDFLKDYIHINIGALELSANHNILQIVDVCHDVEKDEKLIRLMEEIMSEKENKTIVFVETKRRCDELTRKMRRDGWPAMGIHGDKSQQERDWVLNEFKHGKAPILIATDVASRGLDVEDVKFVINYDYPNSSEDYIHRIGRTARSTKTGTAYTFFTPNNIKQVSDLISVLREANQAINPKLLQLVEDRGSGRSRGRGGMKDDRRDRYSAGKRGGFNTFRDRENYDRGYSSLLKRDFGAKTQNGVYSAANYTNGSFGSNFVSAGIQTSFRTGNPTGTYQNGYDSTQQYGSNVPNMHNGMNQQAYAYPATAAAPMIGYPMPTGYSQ
UniProt Q9BVA1: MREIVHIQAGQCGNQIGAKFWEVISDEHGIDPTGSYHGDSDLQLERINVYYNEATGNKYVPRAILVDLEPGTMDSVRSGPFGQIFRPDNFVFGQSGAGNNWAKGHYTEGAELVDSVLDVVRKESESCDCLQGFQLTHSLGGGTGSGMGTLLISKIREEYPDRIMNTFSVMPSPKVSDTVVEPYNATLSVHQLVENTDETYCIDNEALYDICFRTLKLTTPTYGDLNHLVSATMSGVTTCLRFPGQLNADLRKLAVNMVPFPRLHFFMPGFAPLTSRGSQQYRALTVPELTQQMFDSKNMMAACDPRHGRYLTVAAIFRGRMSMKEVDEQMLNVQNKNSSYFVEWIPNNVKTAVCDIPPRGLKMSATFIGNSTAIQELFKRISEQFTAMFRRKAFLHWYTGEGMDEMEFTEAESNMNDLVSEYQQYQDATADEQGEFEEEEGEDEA
UniProt A5A3E0: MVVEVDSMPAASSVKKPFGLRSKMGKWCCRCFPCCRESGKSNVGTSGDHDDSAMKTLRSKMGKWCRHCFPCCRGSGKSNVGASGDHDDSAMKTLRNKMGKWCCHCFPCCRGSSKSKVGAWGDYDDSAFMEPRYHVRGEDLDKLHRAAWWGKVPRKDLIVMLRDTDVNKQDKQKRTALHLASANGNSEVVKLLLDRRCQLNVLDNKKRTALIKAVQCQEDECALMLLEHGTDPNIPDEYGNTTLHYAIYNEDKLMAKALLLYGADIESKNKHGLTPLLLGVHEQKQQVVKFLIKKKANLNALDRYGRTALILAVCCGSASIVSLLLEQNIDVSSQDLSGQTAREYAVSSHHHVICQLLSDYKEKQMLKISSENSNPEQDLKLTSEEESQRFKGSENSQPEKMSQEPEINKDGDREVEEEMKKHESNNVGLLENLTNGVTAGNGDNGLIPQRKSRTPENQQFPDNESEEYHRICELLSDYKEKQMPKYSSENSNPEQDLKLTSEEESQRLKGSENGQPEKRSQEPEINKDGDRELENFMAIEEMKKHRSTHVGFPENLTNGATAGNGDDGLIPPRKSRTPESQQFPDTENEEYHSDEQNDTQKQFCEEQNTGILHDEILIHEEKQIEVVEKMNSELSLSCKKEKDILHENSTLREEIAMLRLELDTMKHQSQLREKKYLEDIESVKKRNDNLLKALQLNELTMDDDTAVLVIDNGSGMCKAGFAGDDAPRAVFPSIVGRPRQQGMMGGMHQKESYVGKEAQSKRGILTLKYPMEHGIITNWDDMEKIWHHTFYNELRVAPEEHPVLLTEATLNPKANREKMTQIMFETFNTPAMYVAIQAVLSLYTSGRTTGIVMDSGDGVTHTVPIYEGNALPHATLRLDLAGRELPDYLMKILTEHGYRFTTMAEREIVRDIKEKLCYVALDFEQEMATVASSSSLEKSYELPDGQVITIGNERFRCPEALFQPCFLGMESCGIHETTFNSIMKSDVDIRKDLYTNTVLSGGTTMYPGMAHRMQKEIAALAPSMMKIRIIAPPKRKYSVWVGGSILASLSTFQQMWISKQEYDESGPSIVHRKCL
UniProt P0CG38: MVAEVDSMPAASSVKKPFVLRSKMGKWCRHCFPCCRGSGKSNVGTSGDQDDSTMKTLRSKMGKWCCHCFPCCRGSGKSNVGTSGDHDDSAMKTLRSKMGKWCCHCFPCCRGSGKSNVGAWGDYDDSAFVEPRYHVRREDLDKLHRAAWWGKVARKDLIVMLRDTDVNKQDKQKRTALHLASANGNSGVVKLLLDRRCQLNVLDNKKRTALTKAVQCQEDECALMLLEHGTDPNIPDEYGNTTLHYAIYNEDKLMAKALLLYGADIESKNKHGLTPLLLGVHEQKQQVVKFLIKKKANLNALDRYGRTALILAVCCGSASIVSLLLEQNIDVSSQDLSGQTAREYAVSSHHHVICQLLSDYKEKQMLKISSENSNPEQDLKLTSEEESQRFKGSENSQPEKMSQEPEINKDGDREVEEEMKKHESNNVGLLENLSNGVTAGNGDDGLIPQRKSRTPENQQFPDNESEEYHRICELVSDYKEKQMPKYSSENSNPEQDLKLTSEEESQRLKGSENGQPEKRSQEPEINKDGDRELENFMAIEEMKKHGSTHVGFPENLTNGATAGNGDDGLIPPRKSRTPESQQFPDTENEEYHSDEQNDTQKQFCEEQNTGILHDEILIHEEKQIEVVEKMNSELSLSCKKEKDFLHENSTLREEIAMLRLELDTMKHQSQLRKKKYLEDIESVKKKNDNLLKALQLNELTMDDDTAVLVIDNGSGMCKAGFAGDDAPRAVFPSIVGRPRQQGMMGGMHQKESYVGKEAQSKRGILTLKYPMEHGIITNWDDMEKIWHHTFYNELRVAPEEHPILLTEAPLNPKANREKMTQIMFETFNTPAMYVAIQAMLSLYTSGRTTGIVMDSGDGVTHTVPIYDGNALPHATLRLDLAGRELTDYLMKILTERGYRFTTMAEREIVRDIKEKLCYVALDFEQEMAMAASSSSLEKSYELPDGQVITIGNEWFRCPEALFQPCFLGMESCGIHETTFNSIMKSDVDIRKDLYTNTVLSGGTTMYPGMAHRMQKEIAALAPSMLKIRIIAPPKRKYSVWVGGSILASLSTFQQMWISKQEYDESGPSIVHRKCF
UniProt Q92841: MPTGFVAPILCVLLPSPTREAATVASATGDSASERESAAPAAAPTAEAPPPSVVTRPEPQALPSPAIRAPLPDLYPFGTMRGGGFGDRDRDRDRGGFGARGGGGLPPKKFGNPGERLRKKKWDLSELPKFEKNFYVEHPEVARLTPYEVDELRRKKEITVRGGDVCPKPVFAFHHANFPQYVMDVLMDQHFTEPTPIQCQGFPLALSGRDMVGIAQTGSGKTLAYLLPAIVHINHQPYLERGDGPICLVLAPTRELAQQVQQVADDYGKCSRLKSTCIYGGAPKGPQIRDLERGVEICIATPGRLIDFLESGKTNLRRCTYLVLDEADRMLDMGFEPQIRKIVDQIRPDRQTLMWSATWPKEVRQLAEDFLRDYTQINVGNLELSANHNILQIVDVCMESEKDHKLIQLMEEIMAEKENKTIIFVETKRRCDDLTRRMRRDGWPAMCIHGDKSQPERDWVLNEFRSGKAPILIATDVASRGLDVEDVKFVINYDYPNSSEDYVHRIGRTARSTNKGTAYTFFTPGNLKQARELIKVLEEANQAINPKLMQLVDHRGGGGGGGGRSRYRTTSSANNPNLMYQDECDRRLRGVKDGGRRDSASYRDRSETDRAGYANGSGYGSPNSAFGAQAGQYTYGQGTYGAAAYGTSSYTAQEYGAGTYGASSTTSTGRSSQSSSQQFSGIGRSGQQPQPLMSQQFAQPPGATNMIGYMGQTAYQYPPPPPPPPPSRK

The target in test [1] is T1, WISP3 p.Cys114Trp variant, HA-tagged (human) (UniProt O95389).
T1 sequence: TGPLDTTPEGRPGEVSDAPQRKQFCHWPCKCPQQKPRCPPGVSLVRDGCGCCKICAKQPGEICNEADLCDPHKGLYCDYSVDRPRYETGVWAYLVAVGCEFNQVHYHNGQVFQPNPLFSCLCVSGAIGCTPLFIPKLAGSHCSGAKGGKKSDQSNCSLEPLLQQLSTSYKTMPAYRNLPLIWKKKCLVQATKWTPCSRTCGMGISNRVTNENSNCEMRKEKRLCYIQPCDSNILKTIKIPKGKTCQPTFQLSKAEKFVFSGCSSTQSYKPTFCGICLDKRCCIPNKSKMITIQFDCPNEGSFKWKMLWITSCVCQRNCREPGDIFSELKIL

Test [2] has as its target T2, WNT1-inducible signaling pathway protein 3 (WISP3), wild-type, HA-tagged (human) (UniProt O95389).
T2 sequence: T1 sequence with W91C

Test [3] deals with T3, WISP3 p.Tyr109* variant, HA-tagged (truncated product of about 14 kDa) (human) (UniProt O95389).
T3 sequence: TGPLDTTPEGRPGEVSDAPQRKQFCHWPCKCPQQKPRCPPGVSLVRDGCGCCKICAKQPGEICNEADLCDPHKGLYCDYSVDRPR

Numbering of substitutions follows the chain as printed. These are yes or no findings as the source states them, for the method shown. In cells and extracts the contact can be indirect. These calls come from enrichment with a bait or labelling near it, and not all partners need be listed. No binding means not detected with the bait. Tags and fused reporters may be left off the sequences shown.

In the case of HSPB1 (from UniProt P04792 1-205), in test [1], the binding result is “binds”.
As to CKAP4 (from UniProt Q07065 1-602), the binding result in test [1] and in test [2] was “binds” in each case.
Take TUBB2A (from UniProt Q13885 1-445): the binding entry in test [1], in test [2] and in test [3] was “binds” throughout.
In the case of LIMA1 (from UniProt Q9UHB6 1-759), the binding result is given as “no binding” in test [1], “binds” in test [2] and “no binding” in test [3].
Turning to DDX5 (from UniProt P17844 1-614), the binding result in test [1] is “binds”; in test [2], “no binding”; in test [3], “no binding”.
Consider ACTBM (from UniProt Q9BYX7 1-375), for which the binding result in test [1], in test [2] and in test [3] was “binds” in each case.
Turning to “TUBB1A (human (endogenous in human chondrocytes))”, the binding entry in test [1], in test [2] and in test [3] was “binds” throughout.
For TUBB2B (from UniProt Q9BVA1 1-445), the binding entry in test [1], in test [2] and in test [3] was “binds” in each case.
For the substance POTEF (from UniProt A5A3E0 1-1075), the binding entry in test [1], in test [2] and in test [3] was “binds” throughout.
For POTEI (from UniProt P0CG38 1-1075), the binding result in test [1], in test [2] and in test [3] was “binds” in each case.
Consider DDX17 (from UniProt Q92841 1-729), for which the binding entry in test [1] is recorded as “binds”; in test [2] it was “no binding”; in test [3], “no binding”.

(Values after publication PMC12469775.)
